The text below walks through data of the supplement of paper PMC6331611.

This experiment deals with Salmonella enterica serovar Typhimurium SL1344. Nature of the experiment: normalized intracellular growth (luminescence, IQM-normalized) in RAW264.7 macrophages (fraction of plate interquartile mean); higher = more bacterial growth (less inhibition). Particulars: 10 µM.

± gives the standard deviation of the averaged measurements. Over roughly 1,600 compounds, “normalized intracellular growth (luminescence, IQM-normalized) in RAW264.7 macrophages” has its median near 1; the lowest 2% begin near 0.43. Some of the results follow.

For the compound `CC(=O)N[C@@H](CCC(N)=O)C(=O)O`, the normalized intracellular growth by setting is: (time point: T3 (3 h)) 0.959 ± 0.023; (time point: Tfinal (~6 h)) 0.942 ± 0.11.
On to `CN1CCCN=C1COC(=O)C(O)(c1ccccc1)C1CCCCC1` (stereo unspecified), for which the normalized intracellular growth came to 1.07 ± 0.042 (time point: T3 (3 h)) and 1.06 ± 0.075 (time point: Tfinal (~6 h)).
Turning to `CC(C)(Oc1ccc(Cl)cc1)C(=O)O`, the normalized intracellular growth turned out to be 1.04 ± 0.021 (time point: T3 (3 h)) and 0.995 ± 0.068 (time point: Tfinal (~6 h)).
`C[C@]12CC[C@@H]3c4ccc(OS(=O)(=O)O)cc4CC[C@H]3[C@@H]1CCC2=O` gave a normalized intracellular growth (time point: T3 (3 h)) of 0.949 ± 0.03 and a normalized intracellular growth (time point: Tfinal (~6 h)) of 0.95 ± 0.093.
Turning to `COc1cccc(OC)c1C(=O)N[C@@H]1C(=O)N2[C@@H]1SC(C)(C)[C@@H]2C(=O)O`, the normalized intracellular growth by setting is: (time point: T3 (3 h)) 0.957 ± 0.027; (time point: Tfinal (~6 h)) 0.935 ± 0.093.
For `Cc1ccc(S(=O)(=O)NC(=O)NN2CCCCCC2)cc1`, the normalized intracellular growth is, setting by setting: (time point: T3 (3 h)) 1.04 ± 0.025; (time point: Tfinal (~6 h)) 1.018 ± 0.0042.
For `CC(C)(C)CC(C)(C)c1ccc(O)c(Cc2ccc(Cl)cc2Cl)c1`, in that order: 0.941 ± 0.069 and 0.835 ± 0.21.
Consider `CCN(CC)CCOC(=O)C(c1ccccc1)c1ccccc1`, for which the normalized intracellular growth by setting is: (time point: T3 (3 h)) 0.98 ± 0.052; (time point: Tfinal (~6 h)) 1.03 ± 0.011.
Taken in the same sequence, the figures for `Nc1nc(NC2CC2)c2ncn([C@H]3C=C[C@@H](CO)C3)c2n1` were 0.9936 ± 0.0059 and 0.935 ± 0.024.
`O=C(COc1ccc(Cl)cc1)N1CCN(Cc2ccc3c(c2)OCO3)CC1` returned a normalized intracellular growth (time point: T3 (3 h)) of 1.11 ± 0.036 and a normalized intracellular growth (time point: Tfinal (~6 h)) of 1.01 ± 0.042.
`N[C@@H](Cc1ccc(O)cc1)C(=O)O` gave a normalized intracellular growth (time point: T3 (3 h)) of 0.934 ± 0.037 and a normalized intracellular growth (time point: Tfinal (~6 h)) of 0.846 ± 0.31.
The compound `CCOc1ccc2nc3cc(N)ccc3c(N)c2c1` came in with a normalized intracellular growth (time point: T3 (3 h)) of 0.985 ± 0.058 and a normalized intracellular growth (time point: Tfinal (~6 h)) of 0.873 ± 0.26.
In the case of `CCN(CC)CCNc1ccc(CO)c2sc3ccccc3c(=O)c12`, the normalized intracellular growth runs as follows: (time point: T3 (3 h)) 1.06 ± 0.065; (time point: Tfinal (~6 h)) 0.825 ± 0.043.
`CN(C)c1ccc(O)c2c1C[C@H]1C[C@H]3[C@H](N(C)C)C(O)=C(C(N)=O)C(=O)[C@@]3(O)C(O)=C1C2=O`: the normalized intracellular growth was determined as 1.01 ± 0.091 (time point: T3 (3 h)) and 0.33 ± 0.14 (time point: Tfinal (~6 h)).
For `Cc1ccsc1/C=C/C1=NCCCN1C`, in that order: 1 ± 0.065 and 0.923 ± 0.16.
`CCCCCCCCCCCCCCCCOP(=O)([O-])OCC[N+](C)(C)C` came in with a normalized intracellular growth (time point: T3 (3 h)) of 0.979 ± 0.025 and a normalized intracellular growth (time point: Tfinal (~6 h)) of 1.05 ± 0.19.
`CN(C)[C@@H]1C(O)=C(C(N)=O)C(=O)[C@@]2(O)C(O)=C3C(=O)c4c(O)cccc4[C@@](C)(O)[C@H]3[C@H](O)[C@@H]12` returned a normalized intracellular growth (time point: T3 (3 h)) of 1.01 ± 0.074 and a normalized intracellular growth (time point: Tfinal (~6 h)) of 0.0331 ± 0.014.
For `CSc1ccc2c(c1)N(CCC1CCCCN1C)c1ccccc1S2` (stereo unspecified), in that order: 1.05 ± 0.12 and 1.24 ± 0.08.
With `CC/C(=C(/CC)c1ccc(O)cc1)c1ccc(O)cc1`, the normalized intracellular growth worked out at 0.983 ± 0.022 (time point: T3 (3 h)) and 1.11 ± 0.04 (time point: Tfinal (~6 h)).
In the case of `CC1=C(/C=C/C(C)=C/C=C/C(C)=C\C(=O)O)C(C)(C)CCC1`, the normalized intracellular growth is 0.851 ± 0.031 (time point: T3 (3 h)) and 0.977 ± 0.048 (time point: Tfinal (~6 h)).
`Cl.N=C(N)NCCC[C@H](N)C(=O)O`: the normalized intracellular growth is, setting by setting: (time point: T3 (3 h)) 1.05 ± 0.065; (time point: Tfinal (~6 h)) 1.02 ± 0.092.
Taken in the same sequence, the figures for `NC(N)=Nc1nc(CSCC/C(N)=N/S(N)(=O)=O)cs1` were 1.03 ± 0.1 and 0.877 ± 0.12.
In turn, `Cc1cc(-c2ccccc2)nnc1NCCN1CCOCC1` returned a normalized intracellular growth (time point: T3 (3 h)) of 1.02 ± 0.029 and a normalized intracellular growth (time point: Tfinal (~6 h)) of 0.986 ± 0.19.
For `CCCCC1(COC(=O)CCC(=O)O)C(=O)N(c2ccccc2)N(c2ccccc2)C1=O`, in that order: 1.08 ± 0.039 and 1.01 ± 0.075.
Taken in the same sequence, the figures for `COc1cc(NC(C)CCCN)c2ncccc2c1` (stereo unspecified) were 0.827 ± 0.19 and 0.849 ± 0.13.
Turning to `CC(C)(C)c1ccc(C(O)CCCN2CCC(C(O)(c3ccccc3)c3ccccc3)CC2)cc1` (stereo unspecified), the normalized intracellular growth by setting is: (time point: T3 (3 h)) 0.831 ± 0.034; (time point: Tfinal (~6 h)) 0.752 ± 0.2.
Take `CC(COc1ccccc1)NC(C)C(O)c1ccc(O)cc1` (stereo unspecified): the normalized intracellular growth turned out to be 1.028 ± 0.0075 (time point: T3 (3 h)) and 1.03 ± 0.024 (time point: Tfinal (~6 h)).
With `CCCCN1CCCCC1C(=O)Nc1c(C)cccc1C` (stereo unspecified), the normalized intracellular growth reads like this: (time point: T3 (3 h)) 1.05 ± 0.043; (time point: Tfinal (~6 h)) 0.561 ± 0.22.
`CO/N=C1\C[C@]2(C[C@@H]3C[C@@H](C/C=C(\C)C[C@@H](C)/C=C/C=C4\CO[C@@H]5[C@H](O)C(C)=C[C@@H](C(=O)O3)[C@]45O)O2)O[C@H](/C(C)=C/C(C)C)[C@H]1C` registered a normalized intracellular growth (time point: T3 (3 h)) of 0.979 ± 0.022 and a normalized intracellular growth (time point: Tfinal (~6 h)) of 0.831 ± 0.033.
With `CCOC(=O)NNc1nncc2ccccc12`, the normalized intracellular growth is, setting by setting: (time point: T3 (3 h)) 1.21 ± 0.052; (time point: Tfinal (~6 h)) 1.33 ± 0.14.
With `CCN(CCO)CCCC(C)Nc1ccnc2cc(Cl)ccc12` (stereo unspecified), the normalized intracellular growth came out at 1.12 ± 0.049 (time point: T3 (3 h)) and 0.989 ± 0.048 (time point: Tfinal (~6 h)).
`Cc1nc(Nc2ncc(C(=O)Nc3c(C)cccc3Cl)s2)cc(N2CCN(CCO)CC2)n1`: the normalized intracellular growth is 0.963 ± 0.061 (time point: T3 (3 h)) and 1.04 ± 0.13 (time point: Tfinal (~6 h)).
Take `Cc1nc(-c2ccc(OCC(C)C)c(C#N)c2)sc1C(=O)O`: the normalized intracellular growth is, setting by setting: (time point: T3 (3 h)) 1.02 ± 0.054; (time point: Tfinal (~6 h)) 1.2 ± 0.14.
Taken in the same sequence, the figures for `CN(C)c1ccc(C(=C2C=CC(=[N+](C)C)C=C2)c2ccc(N(C)C)cc2)cc1` were 0.8927 ± 0.0022 and 0.931 ± 0.03.
Consider `COc1ccc(CC2c3cc(OC)c(OC)cc3CC[N+]2(C)CCC(=O)OCCCCCOC(=O)CC[N+]2(C)CCc3cc(OC)c(OC)cc3C2Cc2ccc(OC)c(OC)c2)cc1OC` (stereo unspecified), for which the normalized intracellular growth (time point: T3 (3 h)) is 1.06 ± 0.067 and the normalized intracellular growth (time point: Tfinal (~6 h)) was determined as 1 ± 0.19.
`CC(=O)[C@H]1CC[C@H]2[C@@H]3CC=C4C[C@@H](O)CC[C@]4(C)[C@H]3CC[C@]12C`: the normalized intracellular growth turned out to be 0.972 ± 0.05 (time point: T3 (3 h)) and 1.1 ± 0.053 (time point: Tfinal (~6 h)).
In the case of `O=c1ccc2ccccc2o1`, the normalized intracellular growth (time point: T3 (3 h)) was 1.02 ± 0.041 and the normalized intracellular growth (time point: Tfinal (~6 h)) was determined as 1.09 ± 0.062.
Consider `CN(C)CCCN1c2ccccc2Sc2ccc(Cl)cc21`, for which the normalized intracellular growth (time point: T3 (3 h)) turned out to be 0.953 ± 0.022 and the normalized intracellular growth (time point: Tfinal (~6 h)) is 0.951 ± 0.032.
On to `O=c1[nH]cnc2c1ncn2[C@@H]1O[C@H](CO)[C@@H](O)[C@H]1O`, for which the normalized intracellular growth is, setting by setting: (time point: T3 (3 h)) 0.917 ± 0.048; (time point: Tfinal (~6 h)) 0.976 ± 0.13.
For the compound `COc1cc([C@@H]2c3cc4c(cc3[C@@H](O[C@@H]3O[C@@H]5CO[C@@H](c6cccs6)O[C@H]5[C@H](O)[C@H]3O)[C@H]3COC(=O)[C@H]23)OCO4)cc(OC)c1O`, the normalized intracellular growth came to 1.1 ± 0.049 (time point: T3 (3 h)) and 1.016 ± 0.0097 (time point: Tfinal (~6 h)).
As for `Nc1ccc(S(=O)(=O)Nc2ccccn2)cc1`, the normalized intracellular growth (time point: T3 (3 h)) amounted to 0.976 ± 0.011 and the normalized intracellular growth (time point: Tfinal (~6 h)) worked out at 1.1 ± 0.033.
In the case of `CO[C@H]1C[C@H](O[C@H]2[C@H](C)[C@@H](O[C@@H]3O[C@H](C)C[C@H](N(C)C)[C@H]3O)[C@@H](C)C[C@@]3(CO3)C(=O)[C@H](C)[C@@H](O)[C@@H](C)[C@@H](C)OC(=O)[C@@H]2C)O[C@@H](C)[C@@H]1O`, the normalized intracellular growth by setting is: (time point: T3 (3 h)) 1.08 ± 0.014; (time point: Tfinal (~6 h)) 1.02 ± 0.057.
As for `COc1ccnc(C[S+]([O-])c2nc3cc(OC(F)F)ccc3[nH]2)c1OC` (stereo unspecified), the normalized intracellular growth amounted to 0.954 ± 0.032 (time point: T3 (3 h)) and 0.992 ± 0.061 (time point: Tfinal (~6 h)).
